{"sequences": {"note": "Sequences of proteins named here, by UniProt entry; tags and fusion partners are left off. Residues count along the entry.", "UniProt O08722, residues 27-945": "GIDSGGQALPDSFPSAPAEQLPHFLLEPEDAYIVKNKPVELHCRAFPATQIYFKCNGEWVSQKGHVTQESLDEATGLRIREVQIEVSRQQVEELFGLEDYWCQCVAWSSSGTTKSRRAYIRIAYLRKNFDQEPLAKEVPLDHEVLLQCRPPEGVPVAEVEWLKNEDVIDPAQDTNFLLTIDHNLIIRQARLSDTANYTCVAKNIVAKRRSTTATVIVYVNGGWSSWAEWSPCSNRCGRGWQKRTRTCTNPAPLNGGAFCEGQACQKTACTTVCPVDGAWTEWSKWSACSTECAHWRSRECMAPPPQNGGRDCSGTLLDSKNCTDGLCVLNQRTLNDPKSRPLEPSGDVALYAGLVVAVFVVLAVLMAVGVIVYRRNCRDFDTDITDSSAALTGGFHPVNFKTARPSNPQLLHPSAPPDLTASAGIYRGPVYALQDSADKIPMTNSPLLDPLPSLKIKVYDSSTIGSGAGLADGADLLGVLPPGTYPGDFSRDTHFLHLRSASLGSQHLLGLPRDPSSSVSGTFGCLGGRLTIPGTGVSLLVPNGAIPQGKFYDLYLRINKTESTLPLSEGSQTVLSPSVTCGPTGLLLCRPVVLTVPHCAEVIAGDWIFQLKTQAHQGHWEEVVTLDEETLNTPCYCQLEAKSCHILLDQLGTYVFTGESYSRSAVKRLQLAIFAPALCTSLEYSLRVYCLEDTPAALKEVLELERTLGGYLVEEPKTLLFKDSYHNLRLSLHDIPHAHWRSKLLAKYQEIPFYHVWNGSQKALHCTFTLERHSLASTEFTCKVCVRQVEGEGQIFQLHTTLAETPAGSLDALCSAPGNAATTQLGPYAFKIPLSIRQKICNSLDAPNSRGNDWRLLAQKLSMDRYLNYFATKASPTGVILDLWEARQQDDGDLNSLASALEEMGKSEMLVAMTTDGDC"}, "source": "patent US20240294636A1", "about": "(YALE UNIVERSITY, published 2024)", "target": "T1, Claudin5 (in porcine aortic endothelial cells transfected with rat Unc5B-GFP) (Sus scrofa) (UniProt C3VML1)", "T1 sequence": "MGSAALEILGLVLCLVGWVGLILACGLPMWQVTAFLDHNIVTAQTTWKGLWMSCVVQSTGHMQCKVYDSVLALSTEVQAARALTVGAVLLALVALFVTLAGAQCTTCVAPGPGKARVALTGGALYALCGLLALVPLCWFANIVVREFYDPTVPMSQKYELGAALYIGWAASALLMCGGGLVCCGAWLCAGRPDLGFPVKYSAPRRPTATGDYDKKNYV", "experiment": "co-immunoprecipitation from PAECs transfected with rat Unc5B-GFP", "note": "Results are given in words; binding and its absence hold for the method and conditions named. Binding seen in cells or lysates may run through a third protein. Some entries that bind do so weakly or less than the wild type. Sequences can lack the tags named with a protein.", "data": [{"substance": "rat Unc5B coupled to GFP (expressed in porcine aortic endothelial cells) (from UniProt O08722 27-945) (receptor)", "values": [{"measurement": "binding", "value": "binds"}]}]}
